Laboratory results published in article PMC6302113.

Protein sequences, listed by entry. Tags and fused reporters are not part of them. Residues count along the entry.
UniProt P60568, residues 21-153: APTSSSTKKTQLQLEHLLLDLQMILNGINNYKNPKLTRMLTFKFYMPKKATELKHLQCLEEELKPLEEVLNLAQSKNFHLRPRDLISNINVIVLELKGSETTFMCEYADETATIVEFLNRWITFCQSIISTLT
UniProt P14625, residues 22-803: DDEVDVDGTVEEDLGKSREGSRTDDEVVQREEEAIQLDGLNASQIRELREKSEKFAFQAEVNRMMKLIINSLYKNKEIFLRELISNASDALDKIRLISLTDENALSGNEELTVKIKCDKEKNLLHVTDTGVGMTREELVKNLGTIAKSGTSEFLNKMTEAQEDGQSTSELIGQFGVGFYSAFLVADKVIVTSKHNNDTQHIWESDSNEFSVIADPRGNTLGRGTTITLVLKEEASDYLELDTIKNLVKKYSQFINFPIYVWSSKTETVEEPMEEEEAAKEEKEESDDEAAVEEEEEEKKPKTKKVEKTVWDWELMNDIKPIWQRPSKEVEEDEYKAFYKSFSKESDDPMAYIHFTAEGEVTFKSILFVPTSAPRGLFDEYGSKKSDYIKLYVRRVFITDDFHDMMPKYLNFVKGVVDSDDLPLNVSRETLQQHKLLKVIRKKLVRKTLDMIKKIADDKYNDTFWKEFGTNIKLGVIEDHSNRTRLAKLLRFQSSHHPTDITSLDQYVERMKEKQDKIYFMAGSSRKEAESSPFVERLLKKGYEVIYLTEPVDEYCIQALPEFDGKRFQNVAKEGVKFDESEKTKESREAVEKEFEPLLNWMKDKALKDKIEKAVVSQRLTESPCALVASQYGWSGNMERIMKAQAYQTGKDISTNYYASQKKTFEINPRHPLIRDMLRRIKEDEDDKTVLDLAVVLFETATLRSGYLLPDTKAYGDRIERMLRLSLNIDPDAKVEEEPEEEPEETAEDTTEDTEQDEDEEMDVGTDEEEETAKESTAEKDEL
UniProt P27824, residues 21-592: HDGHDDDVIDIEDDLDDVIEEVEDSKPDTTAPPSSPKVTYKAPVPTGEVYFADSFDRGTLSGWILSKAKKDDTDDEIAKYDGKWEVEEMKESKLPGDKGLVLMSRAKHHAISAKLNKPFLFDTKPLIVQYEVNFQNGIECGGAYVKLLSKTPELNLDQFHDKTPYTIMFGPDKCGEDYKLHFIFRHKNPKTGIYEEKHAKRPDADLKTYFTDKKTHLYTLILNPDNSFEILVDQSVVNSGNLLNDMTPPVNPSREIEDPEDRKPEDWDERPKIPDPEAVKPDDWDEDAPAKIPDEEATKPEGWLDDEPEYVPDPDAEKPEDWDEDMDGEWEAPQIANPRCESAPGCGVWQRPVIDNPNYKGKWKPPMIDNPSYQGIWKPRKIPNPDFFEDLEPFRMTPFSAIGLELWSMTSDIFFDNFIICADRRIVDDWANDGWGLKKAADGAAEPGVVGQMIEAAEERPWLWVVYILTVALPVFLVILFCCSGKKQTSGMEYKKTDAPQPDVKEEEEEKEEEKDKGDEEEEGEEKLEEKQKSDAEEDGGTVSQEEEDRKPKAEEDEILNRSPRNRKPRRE
UniProt P11021, residues 19-654: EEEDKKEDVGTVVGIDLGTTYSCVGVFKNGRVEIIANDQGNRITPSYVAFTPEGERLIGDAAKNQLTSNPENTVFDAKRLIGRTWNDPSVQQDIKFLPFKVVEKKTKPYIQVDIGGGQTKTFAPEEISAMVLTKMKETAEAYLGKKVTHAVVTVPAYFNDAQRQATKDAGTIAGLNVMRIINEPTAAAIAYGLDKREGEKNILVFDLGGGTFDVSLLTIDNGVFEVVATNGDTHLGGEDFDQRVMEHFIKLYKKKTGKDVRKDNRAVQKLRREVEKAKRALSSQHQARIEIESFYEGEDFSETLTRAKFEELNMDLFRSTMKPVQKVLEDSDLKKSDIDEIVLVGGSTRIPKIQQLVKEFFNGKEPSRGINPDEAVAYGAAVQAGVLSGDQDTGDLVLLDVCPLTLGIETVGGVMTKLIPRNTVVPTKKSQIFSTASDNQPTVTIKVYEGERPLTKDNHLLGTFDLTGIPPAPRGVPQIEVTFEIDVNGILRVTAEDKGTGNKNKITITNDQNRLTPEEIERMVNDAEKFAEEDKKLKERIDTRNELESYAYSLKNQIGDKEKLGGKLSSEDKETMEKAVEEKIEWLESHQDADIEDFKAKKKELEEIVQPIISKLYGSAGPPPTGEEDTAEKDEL

T1: IL-22 binding protein isoform-1 (IL-22BPi1), C-terminally myc-FLAG-tagged (human) (UniProt Q969J5)
T1 sequence: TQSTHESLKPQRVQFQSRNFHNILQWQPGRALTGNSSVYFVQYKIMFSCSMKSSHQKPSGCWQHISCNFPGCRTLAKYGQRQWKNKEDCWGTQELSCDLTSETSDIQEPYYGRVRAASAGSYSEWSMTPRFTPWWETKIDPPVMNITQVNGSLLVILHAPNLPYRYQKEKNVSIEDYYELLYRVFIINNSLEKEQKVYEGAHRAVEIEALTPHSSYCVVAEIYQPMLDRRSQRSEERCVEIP

T2: IL-22 binding protein isoform-2 (IL-22BPi2), C-terminally myc-FLAG-tagged (human) (UniProt Q969J5)
T2 sequence: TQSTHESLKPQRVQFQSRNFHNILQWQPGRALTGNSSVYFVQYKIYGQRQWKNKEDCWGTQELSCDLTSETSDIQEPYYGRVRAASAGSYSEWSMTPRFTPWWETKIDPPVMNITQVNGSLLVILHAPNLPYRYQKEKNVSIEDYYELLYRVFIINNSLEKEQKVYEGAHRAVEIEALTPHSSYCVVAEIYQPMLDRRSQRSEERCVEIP

T3: IL-22, C-terminal Myc-FLAG-tagged (UniProt Q9GZX6)
T3 sequence: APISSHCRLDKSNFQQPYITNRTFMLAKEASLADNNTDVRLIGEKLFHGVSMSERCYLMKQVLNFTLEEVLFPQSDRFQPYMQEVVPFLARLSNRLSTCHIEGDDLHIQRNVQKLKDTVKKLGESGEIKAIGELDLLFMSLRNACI

T4: IL-22 binding protein isoform-3 (IL-22BPi3), FLAG-tagged (human) (UniProt Q969J5)
T4 sequence: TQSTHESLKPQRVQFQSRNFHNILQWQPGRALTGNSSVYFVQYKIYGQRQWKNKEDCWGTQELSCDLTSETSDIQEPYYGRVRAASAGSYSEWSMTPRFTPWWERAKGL


What was measured:
Test in all cases: affinity purification with mass spectrometry; anti-FLAG resin from lysates of transiently transfected HEK293 or HeLa cells, o/n at 4°C, washed with 50 mM Tris, 150 mM NaCl, pH 7.4, 0.1% Tween 20; eluates on SDS-PAGE, silver stained, bands cut and identified by nLC MS/MS; the legend speaks of DSP treatment
[1] = target: T1, IL-22 binding protein isoform-1 (IL-22BPi1), C-terminally myc-FLAG-tagged (human)
[2] = target: T2, IL-22 binding protein isoform-2 (IL-22BPi2), C-terminally myc-FLAG-tagged (human)
[3] = target: T3, IL-22, C-terminal Myc-FLAG-tagged
[4] = target: T4, IL-22 binding protein isoform-3 (IL-22BPi3), FLAG-tagged (human)
[5] = target: IL-2, C-terminal Myc-FLAG-tagged (UniProt P60568)

| binding [1] | binding [2] | binding [3] | binding [4] | binding [5] | Molecule |
| --- | --- | --- | --- | --- | --- |
| binds |  |  |  |  | GRP94, endogenous (from UniProt P14625 22-803) |
| binds | binds |  |  |  | calnexin, endogenous (from UniProt P27824 21-592) |
| binds | binds | no binding | no binding | no binding | GRP78, full-length endogenous (from UniProt P11021 19-654) |
| binds | binds |  |  |  | GRP170, endogenous (protein, UniProt Q9Y4L1 33-999) LAVMSVDLGSESMKVAIVKPGVPMEIVLNKESRRKTPVIVTLKENERFFGDSAASMAIKNPKATLRYFQHLLGKQADNPHVALYQARFPEHELTFDPQRQTVHFQISSQLQFSPEEVLGMVLNYSRSLAEDFAEQPIKDAVITVPVFFNQAERRAVLQAARMAGLKVLQLINDNTATALSYGVFRRKDINTTAQNIMFYDMGSGSTVCTIVTYQMVKTKEAGMQPQLQIRGVGFDRTLGGLEMELRLRERLAGLFNEQRKGQRAKDVRENPRAMAKLLREANRLKTVLSANADHMAQIEGLMDDVDFKAKVTRVEFEELCADLFERVPGPVQQALQSAEMSLDEIEQVILVGGATRVPRVQEVLLKAVGKEELGKNINADEAAAMGAVYQAAALSKAFKVKPFVVRDAVVYPILVEFTREVEEEPGIHSLKHNKRVLFSRMGPYPQRKVITFNRYSHDFNFHINYGDLGFLGPEDLRVFGSQNLTTVKLKGVGDSFKKYPDYESKGIKAHFNLDESGVLSLDRVESVFETLVEDSAEEESTLTKLGNTISSLFGGGTTPDAKENGTDTVQEEEESPAEGSKDEPGEQVELKEEAEAPVEDGSQPPPPEPKGDATPEGEKATEKENGDKSEAQKPSEKAEAGPEGVAPAPEGEKKQKPARKRRMVEEIGVELVVLDLPDLPEDKLAQSVQKLQDLTLRDLEKQEREKAANSLEAFIFETQDKLYQPEYQEVSTEEQREEISGKLSAASTWLEDEGVGATTVMLKEKLAELRKLCQGLFFRVEERKKWPERLSALDNLLNHSSMFLKGARLIPEMDQIFTEVEMTTLEKVINETWAWKNATLAEQAKLPATEKPVLLSKDIEAKMMALDREVQYLLNKAKFTKPRPRPKDKNGTRAEPPLNASASDQGEKVIPPAGQTEDAEPISEPEKVETGSEPGDTEPLELGGPGAEPEQKEQSTGQKRPLKNDEL |

No constants are given. Whether binding was seen depends on the method and setting. Binding seen in cells or lysates may run through a third protein. These calls come from enrichment with a bait or labelling near it, and not all partners need be listed. For some of these results: A no says only that the protein was not detected with the bait. For some of these results: Where a sequence is shown, tags or fusion partners need not be part of it.
